Assay results reported in US20250255815A1, “NUCLEIC ACIDS ENCODING A CONSTITUTIVELY-ACTIVE CYCLIC GMP-AMP SYNTHASE AND IMMUNOGENIC DELIVERY VEHICLES FOR SAME” (Corner Therapeutics, Inc., priority 2022, published 2025).
At least one structure is not confirmed: it was looked up by name or label, or the drawing left a doubt.

Assays:
canine PBMCs = experiment: IL-1β secretion by canine PBMCs (ELISA); format: cell-based; conditions: two days in culture, R848 1 μg/mL, 22:0 LYSO PC 82.5 μM
Experimental: Isolation of PBMCs from Whole Blood. PBMCs were isolated from whole blood using density gradient centrifugation with Ficoll-Paque PLUS (Cytivia). Whole blood was diluted 1:1 with PBS, layered on top of Ficoll-Paque PLUS and centrifuged at 1000×g for 30 minutes at room temperature. PBMCs were collected, washed twice in PBS, and incubated with Ack lysis buffer (Lonza) to remove any remaining red blood cells.
Cell Culture and Stimulation. Immediately following isolation, PBMCs were plated in RPMI medium containing 10% FBS, 50 units/mL penicillin, […] streptomycin, 2 mM L-glutamine, 1 mM sodium pyruvate, and […] beta-mercaptoethanol (R10 media). […]
Endpoint Analyses. […] Half of the media volume in the wells was collected for cytokine quantification by Enzyme-Linked Immunosorbent Assay (ELISA) or Lumit™ Bioluminescent assay, while the remaining media and cells were used to quantify cell viability by assessing metabolic activity.
Quantification of Cytokine Secretion. IL-1β secretion from human PBMCs was assessed using one of the following kits: ELISA MAX Deluxe Set Human IL-1β kit (Biolegend), Invitrogen Human IL-1β kit, or the Lumit™ Human IL-1β Immunoassay (Promega). IFNγ secretion from human PBMCs was assessed using the ELISA MAX Deluxe Set Human IFNγ (Biolegend) and TNFα secretion from human PBMCs was assessed using the Human TNFα Uncoated ELISA kit (Invitrogen). […]

[1] = tested on: murine bone marrow-derived dendritic cells (BMDCs); experiment: IL-1β secretion by murine BMDCs (sandwich ELISA); format: cell-based, mouse; conditions: murine Flt3L BMDCs, 48 hrs; R848 1 μg/mL, 22:0 LPC 100 μM, mRNA 0.91 μg/mL
[2] = tested on: murine bone marrow-derived dendritic cells (BMDCs); experiment: Cytokine secretion by murine BMDCs (LEGENDplex Mouse Anti-viral Response Panel); format: cell-based; conditions: 48 hrs
[3] = tested on: human monocyte-derived dendritic cells (moDCs); experiment: Cytokine secretion by human moDCs (LEGENDplex Human Anti-viral Response Panel); format: cell-based; conditions: 48 hrs
[4] = tested on: human monocyte-derived dendritic cells (moDCs); experiment: Cell surface marker expression by human moDCs (flow cytometry); format: cell-based; conditions: 48 hrs

CCOCc1nc2c(N)nc3ccccc3c2n1CC(C)(C)O [R848, resiquimod]
IL-1β secretion (canine PBMCs): elevated levels of IL-1β secretion
IL-1β secretion [1]: minimal or no IL-1β
IL-6 secretion [2]: IL-6 and TNFα were produced
IP-10 secretion [2]: cells produced RANTES and IP-10
RANTES secretion [2]: cells produced RANTES and IP-10
TNFα secretion [2]: IL-6 and TNFα were produced
IP-10 secretion [3]: insufficient in inducing IP-10 expression
IL-1β secretion ([3]; R848 1 ug/mL): produced minimal IL-1β
CCR7 expression [4]: increased CCR7 expression
CD40 expression [4]: CD40 expression was upregulated
CD80 expression [4]: CD80 and CD86 expression increases
CD86 expression [4]: CD80 and CD86 expression increases
HLA-ABC expression [4]: increased the expression of HLA-ABC
HLA-DR expression [4]: increase HLA-DR expression compared to unstimulated cells
